According to patent publication US20240148740A1, “COMBINATION OF AN AHR INHIBITOR WITH A PDX INHIBITOR OR DOXORUBICINE” (Ikena Oncology, Inc., priority 2020, published 2024):
Some of these results come from one statement about several compounds together.

Experiment: Phase 1 study, interim cohort pharmacokinetics
Set-up: species or system human
Conditions: in vivo
Description: Serial blood samples are obtained to characterize the plasma PK of Compound A and its major active metabolites. The initial sampling strategy is based on the predicted human PK of this compound. If in the course of evaluating the PK, it is determined that an alternative sampling scheme would be more informative, then that alternative sampling scheme can be implemented if the total amount of blood and blood draws obtained for PK is not increased. Moreover, the total number of samples can be decreased at any time if the initial sampling scheme is considered unnecessarily intensive.

Structure (SMILES)	time at which steady state PK was achieved
CC(C)(O)c1cnn2c(N[C@@H]3CCc4[nH]c5ccccc5c4C3)nc(-c3cncc(F)c3)nc12 [Compound B]	≤ 8 days
CC(C)c1cnn2c(N[C@@H]3CCc4[nH]c5ccccc5c4C3)nc(-c3cncc(F)c3)nc12 [Compound A, (R)—N-(2-(5-fluoropyridin-3-yl)-8-isopropylpyrazolo[1,5-a][1,3,5]triazin-4-yl)-2,3,4,9-tetrahydro-1H-carbazol-3-amine]	≤ 8 days
C=C(C)c1cnn2c(N[C@@H]3CCc4[nH]c5ccccc5c4C3)nc(-c3cncc(F)c3)nc12 [Compound C]	≤ 8 days
